Consider eight molecules from publication PMC11837641.

Sequences of proteins named here, by UniProt entry; tags and fusion partners are left off. A change or cut given only in a name is not applied to a line headed by its entry.
UniProt Q9H239: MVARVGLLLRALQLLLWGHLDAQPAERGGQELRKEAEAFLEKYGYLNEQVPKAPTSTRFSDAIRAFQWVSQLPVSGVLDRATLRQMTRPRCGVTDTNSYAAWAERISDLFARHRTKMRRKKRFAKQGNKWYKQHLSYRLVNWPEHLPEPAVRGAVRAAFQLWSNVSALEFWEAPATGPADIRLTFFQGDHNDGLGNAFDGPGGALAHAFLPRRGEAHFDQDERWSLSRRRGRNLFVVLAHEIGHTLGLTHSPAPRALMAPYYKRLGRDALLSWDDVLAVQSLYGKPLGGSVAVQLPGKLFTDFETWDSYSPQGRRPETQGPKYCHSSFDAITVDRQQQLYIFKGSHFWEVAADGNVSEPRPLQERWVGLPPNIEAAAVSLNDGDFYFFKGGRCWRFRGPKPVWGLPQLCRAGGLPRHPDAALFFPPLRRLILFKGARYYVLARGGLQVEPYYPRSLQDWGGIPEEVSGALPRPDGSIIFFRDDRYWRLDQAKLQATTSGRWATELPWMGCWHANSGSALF

The chains are these.
B1: DMPK (protein, UniProt Q09013 1-629)
chain: MSAEVRLRRLQQLVLDPGFLGLEPLLDLLLGVHQELGASELAQDKYVADFLQWAEPIVVRLKEVRLQRDDFEILKVIGRGAFSEVAVVKMKQTGQVYAMKIMNKWDMLKRGEVSCFREERDVLVNGDRRWITQLHFAFQDENYLYLVMEYYVGGDLLTLLSKFGERIPAEMARFYLAEIVMAIDSVHRLGYVHRDIKPDNILLDRCGHIRLADFGSCLKLRADGTVRSLVAVGTPDYLSPEILQAVGGGPGTGSYGPECDWWALGVFAYEMFYGQTPFYADSTAETYGKIVHYKEHLSLPLVDEGVPEEARDFIQRLLCPPETRLGRGGAGDFRTHPFFFGLDWDGLRDSVPPFTPDFEGATDTCNFDLVEDGLTAMVSGGGETLSDIREGAPLGVHLPFVGYSYSCMALRDSEVPGPTPMELEAEQLLEPHVQAPSLEPSVSPQDETAEVAVPAAVPAAEAEAEVTLRELQEALEEEVLTRQSLSREMEAIRTDNQNFASQLREAEARNRDLEAHVRQLQERMELLQAEGATAVTGVPSPRATDPPSHLDGPPAVAVGQCPLVGPGPMHRRHLLLPARVPRPGLSEALSLLLFAVVLSRAAALGCIGLVAHAGQLTAVWRRPGAARAP
B2: GOT2 (protein, UniProt P00505 30-430)
chain: SSWWTHVEMGPPDPILGVTEAFKRDTNSKKMNLGVGAYRDDNGKPYVLPSVRKAEAQIAAKNLDKEYLPIGGLAEFCKASAELALGENSEVLKSGRFVTVQTISGTGALRIGASFLQRFFKFSRDVFLPKPTWGNHTPIFRDAGMQLQGYRYYDPKTCGFDFTGAVEDISKIPEQSVLLLHACAHNPTGVDPRPEQWKEIATVVKKRNLFAFFDMAYQGFASGDGDKDAWAVRHFIEQGINVCLCQSYAKNMGLYGERVGAFTMVCKDADEAKRVESQLKILIRPMYSNPPLNGARIAAAILNTPDLRKQWLQEVKVMADRIIGMRTQLVSNLKKEGSTHNWQHITDQIGMFCFTGLKPEQVERLIKEFSIYMTKDGRISVAGVTSSNVGYLAHAIHQVTK
B3: NDNL2 (protein, UniProt Q96MG7 1-304)
chain: MLQKPRNRGRSGGQAERDRDWSHSGNPGASRAGEDARVLRDGFAEEAPSTSRGPGGSQGSQGPSPQGARRAQAAPAVGPRSQKQLELKVSELVQFLLIKDQKKIPIKRADILKHVIGDYKDIFPDLFKRAAERLQYVFGYKLVELEPKSNTYILINTLEPVEEDAEMRGDQGTPTTGLLMIVLGLIFMKGNTIKETEAWDFLRRLGVYPTKKHLIFGDPKKLITEDFVRQRYLEYRRIPHTDPVDYEFQWGPRTNLETSKMKVLKFVAKVHNQDPKDWPAQYCEALADEENRARPQPSGPAPSS
B4: AP4S1 (protein, UniProt Q9Y587 1-144)
chain: MIKFFLMVNKQGQTRLSKYYEHVDINKRTLLETEVIKSCLSRSNEQCSFIEYKDFKLIYRQYAALFIVVGVNDTENEMAIYEFIHNFVEVLDEYFSRVSELDIMFNLDKVHIILDEMVLNGCIVETNRARILAPLLILDKMSES
B5: RGS22 (protein, UniProt Q8NE09 1-1264)
chain: MPEKRLTAEPPTITEEEFEDSLATDDFLVDYFNEFLSLPTFSEAIRFNADYGVFEVANDAPQFLEKQLKKILQNQQPRNPIYDVVRKGKNEVKPVQMNAPDEDETINVNYNIMCLSREEGIKWIKKERLPAFLESDCYFEYRLAKLVSQVRWSKSGMNFTVGSNFSPWIVKKPPSLPPPATEEDNLVIMKKFYVSLGEASYTQTKDWFALAKQSQQTVSTFSLPCCVPYNKLKSPAISSVSENFIFDDGVHPRTKKDPSKTNKLISEFEEEEGEEEEVSVSLQDTPSQALLRVYLEKKQDVDESLTMHFSTCEEFLSSYIYFILRGAIQQIVGKPVGETPDYINFNNITKVSFDDCFESIHGKNFLSELVQTTKERSEEIEQTSLSSKNESAGPESRADWCISHRTYDIGNRKEFERFKKFIKGTLGERYWWLWMDIERLKVLKDPGRHQRHLEKMKKCYLVSNGDYYLSAEILSKFKLLDGSQWNEEHLRNIQSEVLKPLLLYWAPRFCVTHSASTKYASAELKFWHLRQAKPRKDIDPFPQMATLLPLRPKSCIPQIPEIQKEEFSLSQPPKSPNKSPEVKTATQKPWKRELLYPGSSKDDVIEKGSKYMSESSKVIHLTSFTDISECLKPQLDRRYAYTEEPRVKTVSDVGALGGSDMENLLQSLYVENRAGFFFTKFCEHSGNKLWKNSVYFWFDLQAYHQLFYQETLQPFKVCKQAQYLFATYVAPSATLDIGLQQEKKKEIYMKIQPPFEDLFDTAEEYILLLLLEPWTKMVKSDQIAYKKVELVEETRQLDSTYFRKLQALHKETFSKKAEDTTCEIGTGILSLSNVSKRTEYWDNVPAEYKHFKFSDLLNNKLEFEHFRQFLETHSSSMDLMCWTDIEQFRRITYRDRNQRKAKSIYIKNKYLNKKYFFGPNSPASLYQQNQVMHLSGGWGKILHEQLDAPVLVEIQKHVQNRLENVWLPLFLASEQFAARQKIKVQMKDIAEELLLQKAEKKIGVWKPVESKWISSSCKIIAFRKALLNPVTSRQFQRFVALKGDLLENGLLFWQEVQKYKDLCHSHCDESVIQKKITTIINCFINSSIPPALQIDIPVEQAQKIIEHRKELGPYVFREAQMTIFGVLFKFWPQFCEFRKNLTDENIMSVLERRQEYNKQKKKLAVLEDEKSGKDGIKQYANTSVPAIKTALLSDSFLGLQPYGRQPTWCYSKYIEALEQERILLKIQEELEKKLFAGLQPLTNFKASSSTMSLKKNMSAHSSQK
B6: C6orf15 (protein, UniProt Q6UXA7 27-325)
chain: RSIGVVEEKVSQNLGTNLPQLGQPSSTGPSNSEHPQPALDPRSNDLARVPLKLSVPASDGFPPAGGSAVQRWPPSWGLPAMDSWPPEDPWQMMAAAAEDRLGEALPEELSYLSSAAALAPGSGPLPGESSPDATGLSPKASLLHQDSESRRLPRSNSLGAGGKILSQRPPWSLIHRVLPDHPWGTLNPSVSWGGGGPGTGWGTRPMPHPEGIWGINNQPPGTSWGNINRYPGGSWGNINRYPGGSWGNINRYPGGSWGNIHLYPGINNPFPPGVLRPPGSSWNIPAGFPNPPSPRLQWG
B7: TLR7 (protein, UniProt Q9NYK1 27-1049)
chain: ARWFPKTLPCDVTLDVPKNHVIVDCTDKHLTEIPGGIPTNTTNLTLTINHIPDISPASFHRLDHLVEIDFRCNCVPIPLGSKNNMCIKRLQIKPRSFSGLTYLKSLYLDGNQLLEIPQGLPPSLQLLSLEANNIFSIRKENLTELANIEILYLGQNCYYRNPCYVSYSIEKDAFLNLTKLKVLSLKDNNVTAVPTVLPSTLTELYLYNNMIAKIQEDDFNNLNQLQILDLSGNCPRCYNAPFPCAPCKNNSPLQIPVNAFDALTELKVLRLHSNSLQHVPPRWFKNINKLQELDLSQNFLAKEIGDAKFLHFLPSLIQLDLSFNFELQVYRASMNLSQAFSSLKSLKILRIRGYVFKELKSFNLSPLHNLQNLEVLDLGTNFIKIANLSMFKQFKRLKVIDLSVNKISPSGDSSEVGFCSNARTSVESYEPQVLEQLHYFRYDKYARSCRFKNKEASFMSVNESCYKYGQTLDLSKNSIFFVKSSDFQHLSFLKCLNLSGNLISQTLNGSEFQPLAELRYLDFSNNRLDLLHSTAFEELHKLEVLDISSNSHYFQSEGITHMLNFTKNLKVLQKLMMNDNDISSSTSRTMESESLRTLEFRGNHLDVLWREGDNRYLQLFKNLLKLEELDISKNSLSFLPSGVFDGMPPNLKNLSLAKNGLKSFSWKKLQCLKNLETLDLSHNQLTTVPERLSNCSRSLKNLILKNNQIRSLTKYFLQDAFQLRYLDLSSNKIQMIQKTSFPENVLNNLKMLLLHHNRFLCTCDAVWFVWWVNHTEVTIPYLATDVTCVGPGAHKGQSVISLDLYTCELDLTNLILFSLSISVSLFLMVMMTASHLYFWDVWYIYHFCKAKIKGYQRLISPDCCYDAFIVYDTKDPAVTEWVLAELVAKLEDPREKHFNLCLEERDWLPGQPVLENLSQSIQLSKKTVFVMTDKYAKTENFKIAFYLSHQRLMDEKVDVIILIFLEKPFQKSKFLQLRKRLCGSSVLEWPTNPQAHPYFWQCLKNALATDNHVAYSQVFKETV
B8: RAB11FIP3 (protein, UniProt O75154 1-756)
chain: MASAPPASPPGSEPPGPDPEPGGPDGPGAAQLAPGPAELRLGAPVGGPDPQSPGLDEPAPGAAADGGARWSAGPAPGLEGGPRDPGPSAPPPRSGPRGQLASPDAPGPGPRSEAPLPELDPLFSWTEEPEECGPASCPESAPFRLQGSSSSHRARGEVDVFSPFPAPTAGELALEQGPGSPPQPSDLSQTHPLPSEPVGSQEDGPRLRAVFDALDGDGDGFVRIEDFIQFATVYGAEQVKDLTKYLDPSGLGVISFEDFYQGITAIRNGDPDGQCYGGVASAQDEEPLACPDEFDDFVTYEANEVTDSAYMGSESTYSECETFTDEDTSTLVHPELQPEGDADSAGGSAVPSECLDAMEEPDHGALLLLPGRPHPHGQSVITVIGGEEHFEDYGEGSEAELSPETLCNGQLGCSDPAFLTPSPTKRLSSKKVARYLHQSGALTMEALEDPSPELMEGPEEDIADKVVFLERRVLELEKDTAATGEQHSRLRQENLQLVHRANALEEQLKEQELRACEMVLEETRRQKELLCKMEREKSIEIENLQTRLQQLDEENSELRSCTPCLKANIERLEEEKQKLLDEIESLTLRLSEEQENKRRMGDRLSHERHQFQRDKEATQELIEDLRKQLEHLQLLKLEAEQRRGRSSSMGLQEYHSRARESELEQEVRRLKQDNRNLKEQNEELNGQIITLSIQGAKSLFSTAFSESLAAEISSVSRDELMEAIQKQEEINFRLQDYIDRIIVAIMETNPSILEVK

These are yes or no findings as the source states them, for the method shown. In cells and extracts the contact can be indirect. These calls come from enrichment with a bait or labelling near it, and not all partners need be listed.

This assay addresses matrix metalloproteinase 28 (MMP28) (human (endogenous in AsPC-1 and BxPC-3)) (UniProt Q9H239). Description: affinity purification with mass spectrometry; BxPC-3 whole-cell lysate (enhanced RIPA buffer) incubated with MMP28 antibody or IgG control at 4 °C overnight, protein A/G agarose 3 h, five RIPA washes; LC-MS/MS; top 30 candidates listed.
B1: the binding result is reported as “binds”. With B2, the binding entry was “binds”. As for B3, the entry is “binds”; as for B4, “binds”. B5: the binding entry is listed as “binds”.

For the molecule B6, the binding entry is given as “binds”. Turning to B7, the binding result is “binds”. The entry for B8 is “binds”.
